According to US9617302B2 (priority 2011, dated 2017):
Several values for one entry are separate records, joined by “and”; a condition that tells them apart may be missing. Identical values can stand only once. Entries after “also recorded” stand apart in the source; their conditions may differ. At least one peptide structure holds a part that was inferred or is arguable (an end, a ring closure or a residue). No end group written: not given here.

By UniProt entry, the sequences of proteins in these tests, tags left out. Residues count along the entry.
UniProt Q9HCN6, 21-339: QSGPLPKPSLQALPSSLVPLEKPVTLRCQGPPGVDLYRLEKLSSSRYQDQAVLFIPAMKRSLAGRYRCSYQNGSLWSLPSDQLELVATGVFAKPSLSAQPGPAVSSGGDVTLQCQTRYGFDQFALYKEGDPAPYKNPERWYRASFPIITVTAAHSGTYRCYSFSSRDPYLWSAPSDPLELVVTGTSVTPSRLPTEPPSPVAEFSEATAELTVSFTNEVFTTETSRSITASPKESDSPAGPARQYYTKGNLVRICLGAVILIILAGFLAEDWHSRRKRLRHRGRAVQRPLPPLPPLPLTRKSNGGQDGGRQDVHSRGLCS
UniProt P07359, 17-652: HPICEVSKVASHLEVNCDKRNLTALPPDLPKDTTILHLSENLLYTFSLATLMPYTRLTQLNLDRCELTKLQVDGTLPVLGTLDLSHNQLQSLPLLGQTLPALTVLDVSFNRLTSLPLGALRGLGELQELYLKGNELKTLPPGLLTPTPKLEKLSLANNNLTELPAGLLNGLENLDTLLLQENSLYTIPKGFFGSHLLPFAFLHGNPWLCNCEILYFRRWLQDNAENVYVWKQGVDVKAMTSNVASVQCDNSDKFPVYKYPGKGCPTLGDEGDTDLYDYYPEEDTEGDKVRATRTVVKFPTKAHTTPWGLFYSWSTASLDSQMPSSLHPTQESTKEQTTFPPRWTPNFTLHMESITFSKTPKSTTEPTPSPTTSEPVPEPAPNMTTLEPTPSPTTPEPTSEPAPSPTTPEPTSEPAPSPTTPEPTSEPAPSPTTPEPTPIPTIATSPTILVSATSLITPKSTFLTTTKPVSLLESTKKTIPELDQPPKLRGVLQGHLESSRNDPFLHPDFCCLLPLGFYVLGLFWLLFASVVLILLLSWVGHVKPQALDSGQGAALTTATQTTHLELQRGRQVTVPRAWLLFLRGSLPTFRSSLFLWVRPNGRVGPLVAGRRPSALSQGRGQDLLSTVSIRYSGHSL
UniProt P17301, 30-1181: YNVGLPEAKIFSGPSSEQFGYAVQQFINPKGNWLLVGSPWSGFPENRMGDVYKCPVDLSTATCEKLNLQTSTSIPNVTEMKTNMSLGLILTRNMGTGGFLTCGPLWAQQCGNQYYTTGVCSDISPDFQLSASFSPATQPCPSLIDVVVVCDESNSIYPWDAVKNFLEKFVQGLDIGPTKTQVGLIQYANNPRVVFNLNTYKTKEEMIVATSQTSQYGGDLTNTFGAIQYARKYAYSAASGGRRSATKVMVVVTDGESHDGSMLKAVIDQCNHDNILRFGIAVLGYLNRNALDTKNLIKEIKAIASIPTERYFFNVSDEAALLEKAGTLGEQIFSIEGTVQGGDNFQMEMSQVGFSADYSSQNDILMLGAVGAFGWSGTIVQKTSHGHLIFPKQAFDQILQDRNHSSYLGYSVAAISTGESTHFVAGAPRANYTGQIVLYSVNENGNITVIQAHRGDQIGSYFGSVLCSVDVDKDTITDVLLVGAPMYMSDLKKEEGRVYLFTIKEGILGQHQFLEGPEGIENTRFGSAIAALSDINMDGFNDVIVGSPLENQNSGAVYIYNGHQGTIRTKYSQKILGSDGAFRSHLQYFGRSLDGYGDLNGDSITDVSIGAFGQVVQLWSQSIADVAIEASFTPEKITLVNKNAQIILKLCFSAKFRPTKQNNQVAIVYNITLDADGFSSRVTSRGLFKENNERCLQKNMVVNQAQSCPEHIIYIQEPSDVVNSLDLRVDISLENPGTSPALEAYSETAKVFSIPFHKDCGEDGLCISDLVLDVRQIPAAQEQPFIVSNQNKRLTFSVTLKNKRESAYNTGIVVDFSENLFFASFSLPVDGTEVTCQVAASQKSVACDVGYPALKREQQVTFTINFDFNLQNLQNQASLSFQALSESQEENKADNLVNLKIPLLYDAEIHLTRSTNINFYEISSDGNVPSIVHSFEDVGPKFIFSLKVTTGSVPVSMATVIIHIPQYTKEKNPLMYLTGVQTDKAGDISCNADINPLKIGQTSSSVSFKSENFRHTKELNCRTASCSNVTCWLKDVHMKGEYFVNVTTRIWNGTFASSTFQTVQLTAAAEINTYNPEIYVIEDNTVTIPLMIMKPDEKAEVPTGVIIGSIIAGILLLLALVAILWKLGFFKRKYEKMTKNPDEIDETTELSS
UniProt P05106, 27-788: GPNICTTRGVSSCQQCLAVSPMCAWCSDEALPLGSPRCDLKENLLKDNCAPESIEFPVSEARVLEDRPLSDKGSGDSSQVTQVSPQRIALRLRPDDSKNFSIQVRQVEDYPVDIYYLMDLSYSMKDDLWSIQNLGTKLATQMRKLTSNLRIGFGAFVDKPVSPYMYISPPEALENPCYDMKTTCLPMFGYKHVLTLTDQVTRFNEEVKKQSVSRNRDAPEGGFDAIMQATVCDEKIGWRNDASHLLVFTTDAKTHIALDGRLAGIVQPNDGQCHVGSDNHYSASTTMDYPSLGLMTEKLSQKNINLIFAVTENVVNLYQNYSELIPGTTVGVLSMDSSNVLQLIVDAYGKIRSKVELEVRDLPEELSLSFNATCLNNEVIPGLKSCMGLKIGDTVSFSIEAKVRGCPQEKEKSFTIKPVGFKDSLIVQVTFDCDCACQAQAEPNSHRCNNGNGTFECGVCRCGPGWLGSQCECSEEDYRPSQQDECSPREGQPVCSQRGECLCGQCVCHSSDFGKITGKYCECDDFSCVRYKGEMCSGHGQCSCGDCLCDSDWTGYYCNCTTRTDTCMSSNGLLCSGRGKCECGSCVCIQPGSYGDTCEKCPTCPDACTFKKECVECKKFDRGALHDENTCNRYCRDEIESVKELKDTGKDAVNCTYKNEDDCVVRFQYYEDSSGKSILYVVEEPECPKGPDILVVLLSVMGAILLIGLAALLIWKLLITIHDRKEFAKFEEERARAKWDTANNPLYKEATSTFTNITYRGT
UniProt P08514, 32-887 limits assumed: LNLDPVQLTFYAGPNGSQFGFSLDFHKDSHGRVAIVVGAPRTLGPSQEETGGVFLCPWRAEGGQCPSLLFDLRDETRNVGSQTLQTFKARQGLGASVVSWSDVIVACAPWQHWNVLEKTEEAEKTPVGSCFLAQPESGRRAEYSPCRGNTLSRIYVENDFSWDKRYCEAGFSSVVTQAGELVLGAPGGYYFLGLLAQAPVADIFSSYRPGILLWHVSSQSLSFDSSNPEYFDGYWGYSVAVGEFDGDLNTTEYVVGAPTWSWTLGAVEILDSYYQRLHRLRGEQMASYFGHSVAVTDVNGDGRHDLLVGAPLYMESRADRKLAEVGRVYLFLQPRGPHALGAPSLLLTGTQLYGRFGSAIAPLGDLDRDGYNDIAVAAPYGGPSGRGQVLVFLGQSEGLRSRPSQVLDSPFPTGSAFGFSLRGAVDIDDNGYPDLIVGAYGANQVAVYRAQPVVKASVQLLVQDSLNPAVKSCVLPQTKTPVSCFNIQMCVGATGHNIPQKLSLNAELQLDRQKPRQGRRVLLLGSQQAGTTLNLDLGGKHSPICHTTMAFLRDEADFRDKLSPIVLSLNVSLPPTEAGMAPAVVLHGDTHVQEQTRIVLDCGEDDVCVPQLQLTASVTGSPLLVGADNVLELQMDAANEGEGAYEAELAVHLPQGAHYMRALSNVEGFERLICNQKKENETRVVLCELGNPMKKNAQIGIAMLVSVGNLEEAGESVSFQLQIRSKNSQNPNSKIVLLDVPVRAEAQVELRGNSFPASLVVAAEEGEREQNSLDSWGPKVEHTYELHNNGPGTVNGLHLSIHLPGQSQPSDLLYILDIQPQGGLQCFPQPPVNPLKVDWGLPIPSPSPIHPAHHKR
UniProt P08514, 891-1039 partner limits assumed: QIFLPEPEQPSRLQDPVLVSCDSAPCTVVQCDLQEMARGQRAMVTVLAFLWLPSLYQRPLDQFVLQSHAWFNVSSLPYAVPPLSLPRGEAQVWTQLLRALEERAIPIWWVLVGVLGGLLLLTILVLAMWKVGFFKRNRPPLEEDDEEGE

Tests used:
[1] = system: platelet-rich plasma (PRP); test: ADP-induced platelet aggregation; format: cell-based, human; settings: hexapeptide 200 μg/ml, ADP 20 μM
GPVI = GPVI (Homo sapiens, UniProt Q9HCN6); format: binding
P-selectin expression = P-selectin expression of platelets activated by collagen; format: cell-based, human; settings: various concentrations; collagen 5 μg/ml
thromboxane B2 formation = test: Thromboxane B2 formation of platelets induced by collagen; format: cell-based, human; settings: collagen 5 μg/ml
washed platelets [2] = test: Thrombin-induced platelet aggregation; format: cell-based, human; settings: hexapeptide 100 μg/ml; thrombin 0.05 U/ml
GPIb = GPIb (Homo sapiens, UniProt P07359); format: binding
α2β1 integrin = α2β1 integrin (Homo sapiens, UniProt P05556+P17301); format: binding
washed platelets [3] = format: cell-based, human
[4] = system: platelet-rich thrombus formation in irradiated mesenteric venules; test: Fluorescein sodium-induced platelet thrombus formation in mesenteric venules; format: in vivo, mice; settings: 30 mg/kg IV, control (PBS) 111.1 ± 5.1 s
αIIbβ3 = biological target: T1, αIIbβ3 (Homo sapiens, UniProt P05106+P08514); test: Flow cytometry, binding of anti-αIIbβ3 mAb to platelets; settings: hexapeptide 100 μg/ml
T1 construct: Washed platelets (3×10^8 platelets/ml) containing 2 μM PGE1 were incubated with hexapeptide of trowaglerix α subunit; endogenous in cells; host or cells: washed human platelets from healthy volunteers

[5] = system: platelet-rich plasma (PRP) prepared from mice; test: Ex vivo platelet aggregation study (PRP of treated mice, collagen); format: in vivo; settings: 30 mg/kg IV, blood at 5 min; collagen 3 μg/ml
Experimental: […] The platelet number of the whole blood sample was counted by a Sysmex cell counter (Chuo-Ku Kobe, Japan). PRP was prepared immediately by centrifugation at 200 g for 5 min. Platelet counts in PRP were adjusted to 3×10^8/ml and aggregation assay was performed in an aggregometer.

CKWMNV [Tro-α6, CKWMNV]
Effect on platelet aggregation stimulated by ADP [1]: did not have good effect | Binding of GPVI mAb (6B12) to platelets (GPVI): significantly inhibited; also recorded: specifically inhibited | P-selectin expression of platelets caused by collagen (P-selectin expression): concentration-dependently inhibited | Inhibition of thromboxane B2 formation caused by collagen (thromboxane B2 formation; at 128.2 μM): 15.93±5.81% | Inhibition of thromboxane B2 formation caused by collagen (thromboxane B2 formation; at 684.6 μM): 55.23±12.42% | Thromboxane B2 formation caused by collagen (in words) (thromboxane B2 formation; various concentrations): concentration-dependently inhibited | Effect on platelet aggregation stimulated by thrombin (washed platelets [2]): did not have good effect | Binding of anti-GPIb mAb (AP1) to platelets (GPIb): less effect | Binding of anti-α2β1 integrin mAb (MAB1998) to platelets (α2β1 integrin): less effect; also recorded: but not anti-α2β1 integrin mAb binding | IC50, inhibition of the collagen-induced aggregation (washed platelets [3]): (IC50: 83.38 ± 8.65 μg/ml | Inhibition of the collagen-induced aggregation (%) (washed platelets [3]): ~50% and 44.30 ± 5.86% | Inhibitory activity on collagen-induced platelet aggregation (in words) (washed platelets [3]): specifically inhibited | IC50 (washed platelets [3]; read-out: IC50, inhibition of the collagen-induced aggregation): 107 µM | Occlusion time [4]: 315.9 ± 21.9 s | Occlusion time ([4]; listed as Hexapeptide): 315.9 ± 21.9 s | Binding of anti-αIIbβ3 mAb (7E3) to platelets (αIIbβ3): less effect | % of inhibition, collagen-induced platelet aggregation ex vivo [5]: 46.76±4.73%
